Laboratory results taken from patent US20120219506A1, “Catenae: Serosal Cancer Stem Cells” (SLOAN KETTERING INSTITUTE FOR CANCER RESEARCH, priority 2009, published 2012).

Test system: Ovcar3-GTL catenae
Experiment: Ovcar3-GTL catena drug sensitivity (proliferation, alamarBlue, 384-well)
Details: IC50 day 6 / IC50 day 1

O=C(CCCCCCC(=O)Nc1ccccc1)NO [SAHA]
Increase in Resistance Day 6/Day 1: 8 fold
